# Screen size: about 320,000 compounds; about 22,000 (6.9%) were called active. This list was built around the results that the source calls inconclusive (neither active nor inactive); the mix of calls is not that of the screen. Calls come from the whole dose curve; as a rule, active = well fitted inhibition curve with a large enough effect; inconclusive = small, poorly fitted or top-dose-only effect, or another doubt; inactive = no such curve, though single readings can be large or run the other way. Where the call is inconclusive, the potency comes from a doubtful curve fit.
# Assay: Primary qHTS for delayed death inhibitors of the malarial parasite plastid, 96 hour incubation
# Conditions: P. falciparum luciferase reporter growth; series mostly up to 28.7 µM
# How it was run: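 Infected RBCs, 2% Hct / 0.05% parasitemia final; luciferase-reporter P. falciparum; cpd 96 h, 37 C, 5% CO2; luciferase detection reagent; luminescence.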
# Potency is the fitted concentration of half-maximal effect.
row,Compound,Potency
1,Cc1cc(C)n2nc(SCC(=O)N3CCc4ccccc43)nc2n1,"inconclusive: 0.738 µM [inhibitor, full curve]"
2,CCSc1nc(-c2ccccc2)cc(=O)[nH]1,"inconclusive: 10.4 µM [inhibitor, single point]"
3,CCOC(=O)C(C)n1nc(/C=C/c2ccccc2)ccc1=O (stereo not drawn),"inconclusive: 10.4 µM [inhibitor, single point]"
4,CC(C)N1CCN(Cc2ccc(-c3ccccc3Cl)o2)CC1CCO (stereo not drawn),"inconclusive: 14.7 µM [inhibitor, single point]"
5,C=CCN1C(=O)C(CC(=O)Nc2ccccc2)SC1=Nc1ccc(S(N)(=O)=O)cc1 (stereo not drawn),"inconclusive: 5.22 µM [inhibitor, partial curve, poor fit]"
6,CCCCNC(=S)NNC(=O)c1ccoc1C,inactive
7,Cc1nn(C)cc1S(=O)(=O)N1CCN(Cc2ccc(F)cc2Cl)CC1,"inconclusive: 18.5 µM [inhibitor, single point]"
8,Cc1ccc(C)n1-c1ccc(C(=O)N2CCC(C(N)=O)CC2)cc1,"inconclusive: 11.7 µM [inhibitor, single point]"
9,O=c1[nH]c(C2CCCN(S(=O)(=O)c3ccccc3)C2)nc2c1nnn2Cc1ccccc1Br (stereo not drawn),"inconclusive: 18.5 µM [inhibitor, single point]"
10,Cc1cc(=O)oc2cc(OCC(=O)NCCCN3CCCC3=O)c(Cl)cc12,"inconclusive: 11.7 µM [inhibitor, single point]"
11,CCC1CCCCN1CCn1c(=S)[nH]c2cc(OC)c(OC)cc2c1=O (stereo not drawn),"inconclusive: 18.5 µM [inhibitor, single point]"
12,COc1ccc(N2CCN(C(=O)c3ccccc3)CC2)c([N+](=O)[O-])c1,"inconclusive: 14.7 µM [inhibitor, partial curve, poor fit]"
13,CCCCN(CC)CCCNC(=O)c1cn(C)c(=O)c2c1c1ccccc1n2C,inactive
14,O=C1CC(c2ccc(Cl)c([N+](=O)[O-])c2)c2ccc3ccccc3c2N1 (stereo not drawn),inactive
15,COC(=O)c1cc(Nc2cc(C)c3c(O)cccc3n2)cc(C(=O)OC)c1,"inconclusive: 18.5 µM [inhibitor, single point]"
16,O=C(N/N=C/C1C(=O)NC(=S)N(c2ccccc2)C1=O)c1cc(Br)c(O)c(Br)c1 (stereo not drawn),"inconclusive: 0.233 µM [inhibitor, full curve, poor fit]"
17,CN(Cc1ccccc1)C(=O)COC(=O)COc1ccc(C#N)cc1,inactive
18,COc1ccc(OCCN2C(=O)NC(C)(c3ccc(C)cc3)C2=O)cc1 (stereo not drawn),"inconclusive: 14.7 µM [inhibitor, partial curve, poor fit]"

# Not a retest: 2 of the compounds above.
row,Compound,Potency
4,CC(C)N1CCN(Cc2ccc(-c3ccccc3Cl)o2)CC1CCO (stereo not drawn),"inconclusive: 14.7 µM [inhibitor, single point]"
5,C=CCN1C(=O)C(CC(=O)Nc2ccccc2)SC1=Nc1ccc(S(N)(=O)=O)cc1 (stereo not drawn),"inconclusive: 5.22 µM [inhibitor, partial curve, poor fit]"

# — PubChem BioAssay AID504834 (National Center for Advancing Translational Sciences (NCATS), 2011)
